Experimental data reported in article PMC7819943, “Rice protein-binding microarrays: a tool to detect cis-acting elements near promoter regions in rice”.
The list shows a part of the results.

Target: T1, OsSMF1 (Oryza sativa, UniProt Q6ZLB0 1-436)
T1 sequence: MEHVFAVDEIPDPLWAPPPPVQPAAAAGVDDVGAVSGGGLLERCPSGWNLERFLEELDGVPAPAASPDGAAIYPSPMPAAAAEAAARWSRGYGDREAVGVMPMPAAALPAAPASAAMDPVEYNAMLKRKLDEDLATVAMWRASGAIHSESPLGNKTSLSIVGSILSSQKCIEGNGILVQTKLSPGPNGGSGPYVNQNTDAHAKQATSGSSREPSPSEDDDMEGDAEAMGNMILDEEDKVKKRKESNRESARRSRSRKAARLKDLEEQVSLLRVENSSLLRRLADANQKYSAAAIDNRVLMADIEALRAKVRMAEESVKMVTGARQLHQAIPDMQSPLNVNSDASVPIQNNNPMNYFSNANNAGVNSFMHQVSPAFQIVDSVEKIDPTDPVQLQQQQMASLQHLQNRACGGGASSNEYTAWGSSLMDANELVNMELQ
Experiment: protein-binding microarray (RPBM); PBS, 2% BSA, 51.3 ng/ul salmon testes DNA, 50 uM zinc acetate, 200 nM TF, 25 C, 1 h; high values mean tight binding
Conditions: protein: recombinant; tags: N-terminal polyhistidine and DsRed monomer fusion (pET32a); chain copies: 2; label: CyDye5-dUTP incorporated in the synthesized complementary strand; 3' TTTTT single-stranded linker to array surface; dsDNA, one strand shown
How it was run: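 The binding signal is fluorescence intensity per array feature (arbitrary units). Readings came from an Axon 4000B scanner after a washed, 2% BSA-blocked, double-stranded custom Agilent array had been incubated for 1 h at 25 °C with 200 nM protein and 50 µM zinc acetate. The protein was a Ni–NTA-purified transcription factor fused N-terminally to polyhistidine and DsRed, expressed in E. coli BL21-CodonPlus.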

| Sequence | binding signal |
| --- | --- |
| ATGTGTAGGTCAAAATATATGTCAGCAATTATAAGAGTACCGGAGTCACCTAGTGCAG | 3530 fluorescence intensity (a.u.) |
| CTTTTGACATTATATTAGACAGATGGTAATCAAATTTAACCGGAGTCACCTAGTGCAG | 3360 fluorescence intensity (a.u.) |
| GAAAGATTATGTAACAAGATTGTACTGTCATGATGACATGCGGAGTCACCTAGTGCAG | 3840 fluorescence intensity (a.u.) |
| CTACAAATACCCACGCAACACAGCGTCAGCGTGGCCATCGCGGAGTCACCTAGTGCAG | 9040 fluorescence intensity (a.u.) |
| CGATCGCCACCGGCGCAGCGAGATCTGATTGATATTGATCCGGAGTCACCTAGTGCAG | 19300 fluorescence intensity (a.u.) |
| CCTGGGGTTTATGTGGCGCCGTGTCGCCGTCTGTATACCACGGAGTCACCTAGTGCAG | 3910 fluorescence intensity (a.u.) |
| CGCCTGTCAAATCCTAGTCAGGGAATCTGTCTTCCATCTACGGAGTCACCTAGTGCAG | 5640 fluorescence intensity (a.u.) |
| CCTCCATCTCCACGTACTTCTCCACGCCTCCATCGATGGACGGAGTCACCTAGTGCAG | 6010 fluorescence intensity (a.u.) |
| CCCGTGCGCCCACCCTCTCCCTTCTCTTGTCTCTCCCCTTCGGAGTCACCTAGTGCAG | 3250 fluorescence intensity (a.u.) |
| AGCGACACGCGGCGGCGGGCAGAGCTGGAGAGGTGGGGCACGGAGTCACCTAGTGCAG | 3880 fluorescence intensity (a.u.) |
| CTTTTAGTCGATCAGGTGAACATGACCCATTGTGTGATTCCGGAGTCACCTAGTGCAG | 3390 fluorescence intensity (a.u.) |
| ACACGTGGGACCCACGTGGGTCCCATGCTGACTCAGCTGCCGGAGTCACCTAGTGCAG | 28100 fluorescence intensity (a.u.) |
| GGACGGCCGCACCAAGGCCGTCGACGTCACCGGCCCCGACCGGAGTCACCTAGTGCAG | 4350 fluorescence intensity (a.u.) |
| GCGCCCAACACTTCATTGGACAGTGGTTGTCATGAGTCTTCGGAGTCACCTAGTGCAG | 3480 fluorescence intensity (a.u.) |
| CCCGTCACACGGTGACTCACACCGATCCACGCCGCCACCGCGGAGTCACCTAGTGCAG | 10200 fluorescence intensity (a.u.) |
| TGGCTGACTGACTGGCGGCGGCCATGTGGAGGTTGAAGGTCGGAGTCACCTAGTGCAG | 3840 fluorescence intensity (a.u.) |
| GCTAGTGGTCCCACATGTCAGCTGTGAGCGTACTCGCCTTCGGAGTCACCTAGTGCAG | 3750 fluorescence intensity (a.u.) |
| ATACACGCGCACACACACGTCACTACTTCACATGCAACACCGGAGTCACCTAGTGCAG | 15200 fluorescence intensity (a.u.) |
| TCTGACTTTGTGACCTGGAATCATGGATATGTCATGGAGTCGGAGTCACCTAGTGCAG | 3940 fluorescence intensity (a.u.) |
| GGTTTAATCATTGACAAAATTAAACTGACTAGGAATGAAACGGAGTCACCTAGTGCAG | 3570 fluorescence intensity (a.u.) |
| ATCCTGCTTGACTCCAGCTGGTCACCGCGCTTGTCGAGCTCGGAGTCACCTAGTGCAG | 3620 fluorescence intensity (a.u.) |

| Sequence | binding signal |
| --- | --- |
| CTTTTGCCCTTCATGACAACCTAAACCCCAGCTTCAGAGTCGGAGTCACCTAGTGCAG | 4230 fluorescence intensity (a.u.) |
| CATGGATAATTTGTTTTGGAGTGACACACTGACACTGATGCGGAGTCACCTAGTGCAG | 4020 fluorescence intensity (a.u.) |
| CTAGATGGCCTTATTATCTCTACATCACACGTTATATCTACGGAGTCACCTAGTGCAG | 3300 fluorescence intensity (a.u.) |
| TGCTGACTATGATGCCACGTCAGCGAAACCACCCATATATCGGAGTCACCTAGTGCAG | 23000 fluorescence intensity (a.u.) |
| CAAAACGATCGGAGTTATCCGGAGACGCCACGTCAGCTAGCGGAGTCACCTAGTGCAG | 25900 fluorescence intensity (a.u.) |
| ACAATGAACACACGTCAGGAAGTCACTCCGGTACAAGCCACGGAGTCACCTAGTGCAG | 5160 fluorescence intensity (a.u.) |
| AACATTCTGTTAGAGAATGATGTGGCATATAACTGTTGGTCGGAGTCACCTAGTGCAG | 15500 fluorescence intensity (a.u.) |
| ACAAGAAACTGGACAACTTCCACCGCCATCAATGACTCTGCGGAGTCACCTAGTGCAG | 3520 fluorescence intensity (a.u.) |
| ATCACATAAAATTCCAGGGTTAATTGGATCCATGCTACTGCGGAGTCACCTAGTGCAG | 4010 fluorescence intensity (a.u.) |
| CTTGTCTGTCACCAGTTCATCACGCGATGTCGTCATAGCTCGGAGTCACCTAGTGCAG | 5840 fluorescence intensity (a.u.) |
| TCCACCACACGTGTCTATATCGCTTCCTTCCATTCCATCACGGAGTCACCTAGTGCAG | 7170 fluorescence intensity (a.u.) |
| AATTACCACCCTAACTCAATTAGAAGCGGTTTTCAGCCTACGGAGTCACCTAGTGCAG | 52400 fluorescence intensity (a.u.) |
| GTCGCCAATAGGGAGAGGCCAATCACCGTTCCTCGGCTCACGGAGTCACCTAGTGCAG | 3190 fluorescence intensity (a.u.) |
| AGGACCAGCGTCGGGGATGGCGTCCACGTCACCGCATCCGCGGAGTCACCTAGTGCAG | 14600 fluorescence intensity (a.u.) |
| GTCGTTACATTTTGCTTAATCCAGTCATCCAGATAATCACCGGAGTCACCTAGTGCAG | 3200 fluorescence intensity (a.u.) |
| ACAGTGTCACTGCAGCTGCCACTCGCCACGCACGTGAACGCGGAGTCACCTAGTGCAG | 5560 fluorescence intensity (a.u.) |
| GTATTATACTAGTATAAGGTTTAGCGTGGGATGCGTGGGGCGGAGTCACCTAGTGCAG | 3300 fluorescence intensity (a.u.) |
| CGATTTTACCTTCTACGGAAGAACGGCTATGATGTGTCATCGGAGTCACCTAGTGCAG | 7030 fluorescence intensity (a.u.) |
| TAGCAGCAGCACAGTGACGACGACGCTAGCTAAGGGCAGACGGAGTCACCTAGTGCAG | 36700 fluorescence intensity (a.u.) |
| TTGGGAGCTCGCCGGTGACGTGGTATGTGTGTTGGTGGTGCGGAGTCACCTAGTGCAG | 21700 fluorescence intensity (a.u.) |
| ACGAGCAACTTATATATTGTTGTACCGTTATACCCACCACCGGAGTCACCTAGTGCAG | 3790 fluorescence intensity (a.u.) |

Part of the list above in a different format.
Sequence,binding signal
TGCTGACTATGATGCCACGTCAGCGAAACCACCCATATATCGGAGTCACCTAGTGCAG,23000 fluorescence intensity (a.u.)
CAAAACGATCGGAGTTATCCGGAGACGCCACGTCAGCTAGCGGAGTCACCTAGTGCAG,25900 fluorescence intensity (a.u.)
